Results from PubChem BioAssay AID504834 (National Center for Advancing Translational Sciences (NCATS), 2011).
Among all 320,000 compounds or so, about 22,000 (6.9%) were called active. The inconclusive results got no clear call from the source; some entries with a clear call stand among them for comparison. Calls come from the whole dose curve; as a rule, active = well fitted inhibition curve with a large enough effect; inconclusive = small, poorly fitted or top-dose-only effect, or another doubt; inactive = no such curve, though single readings can be large or run the other way. Potencies beside an inconclusive call are fits to weak or partial responses and may not hold up.

Experiment: Primary qHTS for delayed death inhibitors of the malarial parasite plastid, 96 hour incubation
Settings: P. falciparum luciferase reporter growth; series mostly up to 28.7 µM
Procedure, shortened: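 Erythrocytes infected with luciferase-expressing P. falciparum were dispensed at 2% hematocrit and 0.05% parasitemia (final), then incubated with compounds 96 hours at 37 C in 5% CO2. Luminescence after detection reagent addition reported growth.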
Potency is the fitted concentration of half-maximal effect.

Compound | Potency
COc1ccc(CNS(=O)(=O)c2ccc3c(c2)NC(=O)CS3)cc1 | inconclusive: 18.5 µM [inhibitor, single point]
O=C(c1ccc(Cl)c(S(=O)(=O)N2CCOCC2)c1)N1CCN(c2ccccc2F)CC1 | inconclusive: 14.7 µM [inhibitor, partial curve]
CCc1c(C(=O)N/N=C/c2ccc(C)o2)csc1C | inconclusive: 11.7 µM [inhibitor, single point]
COc1ccc(S(=O)(=O)N2CCCN(CC(=O)C(C)(C)C)CC2)cc1 | inconclusive: 5.86 µM [inhibitor, partial curve]
COc1ccc([C@H]2CC(=O)C=C(c3ccccc3OC)C2)cc1OC | inactive
CCCC(=O)N(CCN1CCOCC1)c1nc2ccc(OCC)cc2s1 | inconclusive: 18.5 µM [inhibitor, single point]
CC[C@]1(c2ccccc2OC)C(=O)N(C(=O)OC)N1C(=O)OC | inconclusive: 0.117 µM [inhibitor, full curve, poor fit]
O=C(c1cc2sccc2n1Cc1ccccc1)N1CCN(c2nc3ccccc3s2)CC1 | inconclusive: 18.5 µM [inhibitor, single point]
O=C(Nc1ccc([N+](=O)[O-])cc1)Nc1nc(-c2ccc(Cl)s2)cs1 | inconclusive: 1.04 µM [inhibitor, full curve, poor fit]
O=C(CNC(=O)C1COc2ccccc2O1)N/N=C/c1ccc(O)cc1O (stereo unspecified) | inconclusive: 11.7 µM [inhibitor, partial curve]
CC(=O)c1ccc(NC(=O)c2ccccc2-c2ccccc2C(=O)O)cc1 | active: 4.65 µM
Cc1nc2ccc(-n3ccc(=O)cc3)cc2s1 | inconclusive: 2.62 µM [inhibitor, single point]
Cc1ccc(O)c(/C=N/NC(=O)COc2ccc3c(C)cc(=O)oc3c2)c1 | active: 10.4 µM
COc1ccc(CCN2C(=O)CN=C2Nc2ccc(F)cc2)cc1OC | inactive
O=C(c1ccoc1)N1CCCC(Nc2ccc(F)c(F)c2)C1 (stereo unspecified) | inactive
Cc1cc(C(=O)COC(=O)c2ccc(NC(=O)CC#N)cc2)c(C)n1CCc1ccc(F)cc1 | inconclusive: 18.5 µM [inhibitor, single point]
CCOC(=O)C1CCN(C(=O)c2cccc(C(=O)N3CCC(C(=O)OCC)CC3)c2)CC1 | inconclusive: 11.7 µM [inhibitor, single point]
CCOC(=S)SCC(=O)N1CCc2cc(OC)ccc2C1C1C(=O)CCCC1=O (stereo unspecified) | inconclusive: 4.15 µM [inhibitor, single point]
C=CCN1C(=O)N/C(=C/c2ccccc2OCC(=O)Nc2ccc(F)cc2)C1=O | inconclusive: 18.5 µM [inhibitor, single point]
CCOC(=O)C1=C2c3ccc4ccccc4c3CC(C)(C)N2C(=O)C1=O | inconclusive: 18.5 µM [inhibitor, single point]
O=C(CCCn1c(SCC(=O)Nc2ccccc2C(F)(F)F)nc2ccccc2c1=O)NCC1CCCO1 (stereo unspecified) | inconclusive: 18.5 µM [inhibitor, single point]
Cc1cc(C)nc(N/N=C/c2sccc2C)n1 | inconclusive: 18.5 µM [inhibitor, single point]
CCOC(=O)N1CCC(NC(=O)CN2C(=O)COc3ccc(C(C)(C)C)cc32)CC1 | inconclusive: 1.31 µM [inhibitor, partial curve, poor fit]
CN(C)C(CNC(=O)CCNS(=O)(=O)c1ccccc1C(F)(F)F)c1ccccc1 (stereo unspecified) | inconclusive: 18.5 µM [inhibitor, single point]

Compound | Potency
Cc1ccc(NC(=O)CSc2nc3ccccc3c(=O)n2CCCN2CCCCC2)cc1C | inactive
Clc1ccc(/C(Cc2nc3ccccc3[nH]2)=N\Nc2ccccc2)cc1 | inconclusive: 4.65 µM [inhibitor, partial curve, poor fit]
COc1cc(Cl)c(C)cc1NC(=O)CSc1nnc(-c2ccco2)n1CC(C)C | active: 10.4 µM
COc1cc2c(cc1OC)C1=C(C#N)CC/C(=N\S(=O)(=O)c3cccc(Cl)c3)N1CC2 | inconclusive: 11.7 µM [inhibitor, partial curve, poor fit]
COc1ccc(N2CCN(C(=O)CCS(=O)(=O)c3ccc4c(c3)NC(=O)C(C)S4)CC2)cc1 (stereo unspecified) | active: 9.28 µM
CC(=O)OC(C)CS(=O)(=O)c1ccccc1 (stereo unspecified) | inactive
CCS(=O)(=O)N1CCN(C(C)CCc2ccccc2)CC1 (stereo unspecified) | active: 3.29 µM
COc1cc(/C=C2\SC(=S)N(CC(=O)O)C2=O)ccc1OC(=O)c1ccco1 | inactive
O=C(c1cccc(S(=O)(=O)N2CCCCC2)c1)N(CCc1ccccc1)Cc1ccccc1 | inconclusive: 13.1 µM [inhibitor, partial curve, poor fit]
COc1cc(OC)c2ccc(=O)oc2c1C(CC(=O)N1CCCC1)c1ccc(N(C)C)cc1 (stereo unspecified) | inconclusive: 4.65 µM [inhibitor, partial curve]
Cc1cccc(OCC(=O)Nc2cc(C)on2)c1 | inconclusive: 0.0185 µM [inhibitor, full curve, poor fit]
COc1ccc(CNC(=O)C/C(C)=N/NC(=O)Cc2ccc(OC)c(OC)c2)cc1 | inconclusive: 9.28 µM [inhibitor, single point]
COc1ccc([N+](=O)[O-])cc1NC(=O)c1ccc(CN(c2ccc(C)c(C)c2)S(C)(=O)=O)cc1 | inconclusive: 9.28 µM [inhibitor, partial curve, poor fit]
O=C(NCc1ccco1)c1ccc(COc2ccccc2Cl)cc1 | inconclusive: 0.828 µM [inhibitor, full curve]
CCCCCC(=O)NNC(=O)c1c(O)c2ccccc2n(CC)c1=O | active: 10.4 µM
CC(=O)Nc1nc2ccccc2n1Cc1ccccc1Cl | inconclusive: 1.65 µM [inhibitor, full curve, poor fit]
CC(=O)N1N=C(c2ccc3ccccc3c2)OC1(C)C | inactive
CC(C)(C)c1ccc(OCCNC(=O)Cc2ccc(F)cc2)cc1 | inactive
O=[N+]([O-])c1cccc(-c2noc(COc3ccccc3)n2)c1 | inactive
O=C(NCCNS(=O)(=O)c1ccccc1)c1ccc([N+](=O)[O-])cc1 | inconclusive: 10.4 µM [inhibitor, single point]
CCCCN(C(=O)c1ccc(Cl)c([N+](=O)[O-])c1)c1c(N)n(CCC)c(=O)[nH]c1=O | inconclusive: 5.86 µM [inhibitor, single point]
Cc1nc2ccccn2c1C(=O)NNC(=S)Nc1ccccc1 | inactive
CCOC(=O)c1c(C)[nH]c(C(=O)COC(=O)CSC)c1C | inactive
CCn1c(C)nc2c(C)[n+](CC(=O)c3ccc(Br)cc3)ccc21 | inconclusive: 18.5 µM [inhibitor, single point]

Compound | Potency
C=C1CCN([C@@H](C)C(=O)NCc2ccc(Cl)cc2)S(=O)(=O)c2ccccc21 | inconclusive: 11.7 µM [inhibitor, partial curve, poor fit]
COc1ccc(NC(=O)c2cccnc2)cc1 | inconclusive: 18.5 µM [inhibitor, single point]
CC1(c2cccc(Br)c2)NC(=O)N(CC(=O)N2CCc3ccccc32)C1=O (stereo unspecified) | inconclusive: 18.5 µM [inhibitor, single point]
CCOc1ccc(S(=O)(=O)NCCC(=O)NCCc2ccc(C(C)C)cc2)cc1 | inconclusive: 10.4 µM [inhibitor, single point]
O=C(CC(=O)N/N=C/c1ccc(O)cc1)N/N=C/c1ccc(O)cc1 | inactive
c1ccc(CCCNc2ncccn2)cc1 | active: 3.29 µM
CCN(CC)CCSc1nc2ccccc2n1Cc1ccccc1 | inactive
CCN(CC)C(=O)C[n+]1cccc(C(N)=O)c1 | inconclusive: 3.7 µM [inhibitor, single point]
C=CCc1ccccc1OCC(=O)NNC(=S)NCc1ccccc1 | active: 10.4 µM
O=C(CNCC1CCCO1)N1CCCc2ccccc21 (stereo unspecified) | inactive
Cc1ccc(C)c(S(=O)(=O)NCc2ccc(C(=O)N3CCCCC3C)cc2)c1 (stereo unspecified) | active: 4.15 µM
O=c1c(-c2ccc(Cl)cc2)coc2c(CN3CCOCC3)c(O)ccc12 | active: 10.4 µM
COc1ccc2c(=O)c(C(=O)NCCc3ccccc3)c[nH]c2c1 | inactive
CC(C)(C)OC(=O)CNC(=O)c1[nH]cnc1C(=O)N[C@@H](CCCCNC(=O)OC(C)(C)C)C(=O)OC(C)(C)C | inconclusive: 9.28 µM [inhibitor, single point]
COc1ccc(OC)c(-c2csc(NC(=O)c3ccc(F)cc3)n2)c1 | inconclusive: 9.28 µM [inhibitor, single point]
O=C(NC1CCN(S(=O)(=O)c2ccc(F)cc2)CC1)c1cccc(F)c1 | inconclusive: 10.4 µM [inhibitor, single point]
Cc1cc(C(=O)NNc2c(Cl)cccc2Cl)no1 | inactive
COc1ccc(-n2c(C)cc(C(=O)C[N+]34CCN(CC3)CC4)c2C)cc1 | active: 5.86 µM
Cc1cc(C)n2nc(CC(=O)NC3CCCC(C)C3C)nc2n1 (stereo unspecified) | inconclusive: 4.65 µM [inhibitor, partial curve]
O=C(O)c1cccc(NC(=O)c2cc(NC(=O)c3ccccc3)cc(NC(=O)c3ccccc3)c2)c1 | active: 8.28 µM
Cc1ccc(-c2cc3c(n2-c2ccc(C(=O)O)cc2)CCCC3=O)cc1 | inactive
COc1ccc2oc(C(=O)OCC(=O)NCCN3C(=O)CSC3=O)c(C)c2c1 | inactive
Clc1cccc(CN2CCc3c([nH]c4ccccc34)C2)c1Cl | inconclusive: 2.33 µM [inhibitor, full curve]

Quoted from above, 3 compounds:
Compound | Potency
CC(C)(C)OC(=O)CNC(=O)c1[nH]cnc1C(=O)N[C@@H](CCCCNC(=O)OC(C)(C)C)C(=O)OC(C)(C)C | inconclusive: 9.28 µM [inhibitor, single point]
COc1ccc(OC)c(-c2csc(NC(=O)c3ccc(F)cc3)n2)c1 | inconclusive: 9.28 µM [inhibitor, single point]
O=C(NC1CCN(S(=O)(=O)c2ccc(F)cc2)CC1)c1cccc(F)c1 | inconclusive: 10.4 µM [inhibitor, single point]
